In PMC6797808, “Fucosylated inhibitors of recently identified bangle lectin from Photorhabdus asymbiotica” (Scientific Reports, 2019):
Results are given in words; binding and its absence hold for the method and conditions named. Some entries that bind do so weakly or less than the wild type.

Protein sequences, listed by entry. Tags and fused reporters are not part of them.
UniProt C7BLE4: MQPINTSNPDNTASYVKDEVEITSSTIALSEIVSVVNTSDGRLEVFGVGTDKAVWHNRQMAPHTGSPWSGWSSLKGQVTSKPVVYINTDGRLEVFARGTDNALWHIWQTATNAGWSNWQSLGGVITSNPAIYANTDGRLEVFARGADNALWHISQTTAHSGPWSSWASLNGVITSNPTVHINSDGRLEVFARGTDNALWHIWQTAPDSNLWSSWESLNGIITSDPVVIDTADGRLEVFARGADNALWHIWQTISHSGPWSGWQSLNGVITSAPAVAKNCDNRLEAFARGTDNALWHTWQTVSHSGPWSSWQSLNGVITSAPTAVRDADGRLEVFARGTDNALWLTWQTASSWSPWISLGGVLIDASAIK

Molecular target: bangle lectin PHL from Photorhabdus asymbiotica (Photorhabdus asymbiotica) (UniProt C7BLE4)
Test: crystal structure; PHL crystals (3.7 M NaCl, 100 mM Hepes, pH 7.5) soaked in 10 mM fucoside 2, 3 or 4 for 1 hour; two monomer units (A, B) in each structure; both purified

bangle lectin PHL from Photorhabdus asymbiotica (from UniProt C7BLE4 1-369)
binding: binds
